Measurements reported in paper PMC7277541, “Antimicrobial and Antifungal Activities of Terpene-Derived Palladium Complexes” (Antibiotics, 2020).

Assays:
[1] = system: C. neoformans var. grubii H99 ATCC 208821; experiment: Antifungal MIC assay, C. neoformans; type: cell-based, Cryptococcus neoformans; settings: for Selectivity Index (SI) C. neoformans CC50/MIC: CC50 against HEK293 divided by MIC C. neoformans var grubii H99 ATCC 208821; for Selectivity Index (SI) C. neoformans HC10/MIC: HC10 human red blood cells divided by MIC C. neoformans var grubii H99 ATCC 208821
Description: Screening against bacteria and yeasts for antimicrobial activity and toxicity against mammalian cells was performed in duplicate (n = 2). […] Becton Dickinson 242720) agar at 30 °C. A yeast suspension of 1 × 10^6 to 5 × 10^6 CFU/mL (as determined by OD530) was prepared from five colonies form the agar plates, and subsequently diluted with Yeast Nitrogen Base media (YNB; Becton Dickinson 233520), and added to each well of the compound containing plates (384-well plates, NBS; […] Plates were covered and incubated at 35 °C for 36 h without shaking. […] Fluconazole (Sigma Aldrich, F8929) was used as a positive inhibitor control on each plate for both strains.

[2] = system: S. aureus (MRSA) ATCC 43300; experiment: Antibacterial MIC assay, S. aureus (MRSA); type: cell-based, Staphylococcus aureus; settings: for Selectivity Index (SI) S. aureus (MRSA) CC50/MIC: CC50 against HEK293 divided by MIC S. aureus ATCC 43300; for Selectivity Index (SI) S. aureus (MRSA) HC10/MIC: HC10 human red blood cells divided by MIC S. aureus ATCC 43300
Description: Dry compounds were dissolved in dimethyl sulfoxide (DMSO), and serially diluted 2-fold to produce an 8-point dose response with DMSO/water and then added into microtiter plates with a final DMSO concentration of 0.5%, providing a concentration range of 0.25 to 32 μg/mL. Screening against bacteria and yeasts for antimicrobial activity and toxicity against mammalian cells was performed in duplicate (n = 2).
For the bacterial assays, each bacterial strain was cultured in Cation-Adjusted Mueller Hinton Broth (CAMHB; Bacto Laboratories 212322) at 37 °C overnight. Bacterial strains tested were methicillin resistant S. aureus (methicillin-resistant Staphylococcus aureus - MRSA) ATCC 43300, E. coli ATCC 25922, K. pneumoniae K6/ESBL ATCC 700603, P. aeruginosa ATCC 27853, A. baumannii ATCC 19606. A sample of each culture was then diluted 40-fold in fresh CAMHB and incubated at 37 °C for 1.5–3 h. The resultant mid-log phase cultures were diluted with CAMHB (CFU/mL measured by OD600), then added to each well of the compound-containing plates (384-well non-binding surface (NBS) plates; Corning CLS3640), giving a final cell density of 5 × 10^5 CFU/mL and a total volume of 50 μL. Plates were covered and incubated at 37 °C for 18 h without shaking. Inhibition of bacterial growth was determined by measuring absorbance at 600 nm (OD600), using media only as negative control and bacteria without inhibitors as positive control. MIC values were determined as the lowest concentration at which the growth was inhibited by ≥ 80% (equivalent to no visible growth by eye). Colistin sulfate (Sigma Aldrich, Castle Hill, Australia C4461) and vancomycin HCl (Sigma Aldrich, 861987) were used as positive inhibitor controls on each plate for Gram-negative and Gram-positive bacteria, respectively.

SMILES	Selectivity Index (SI) C. neoformans CC50/MIC [1]	Selectivity Index (SI) C. neoformans HC10/MIC [1]	Selectivity Index (SI) S. aureus (MRSA) CC50/MIC [2]	Selectivity Index (SI) S. aureus (MRSA) HC10/MIC [2]
C[C@H](N=C1C[C@H]2C[C@H](C2(C)C)[C@@]1(C)O)c1cccc[c]1[Pd][Cl].C[C@H](N=C1C[C@H]2C[C@H](C2(C)C)[C@@]1(C)O)c1cccc[c]1[Pd][Cl] [Compound 1]	23.8	7.8	3.0	1.0
C[C@H](N[C@@H]1C[C@H]2C[C@H](C2(C)C)[C@@]1(C)O)c1cccc[c]1[Pd]([Cl])[P](c1ccccc1)(c1ccccc1)c1ccccc1 [Compound 5, (+)-trans-Chloro{(1R,2R,3R,5R)-3-((S)-1′-phenylethylamino)-2,6,6-trimethylbicyclo[3.1.1]heptane-2-ol-C,N}(triphenylphosphine)palladium(II)]	2.9	5.6	0.2	0.4
